Results are given in words; binding and its absence hold for the method and conditions named. Binding seen in cells or lysates may run through a third protein. Some entries that bind do so weakly or less than the wild type.

Chains of the proteins cited; added tags and fusions are not shown.
UniProt P13864: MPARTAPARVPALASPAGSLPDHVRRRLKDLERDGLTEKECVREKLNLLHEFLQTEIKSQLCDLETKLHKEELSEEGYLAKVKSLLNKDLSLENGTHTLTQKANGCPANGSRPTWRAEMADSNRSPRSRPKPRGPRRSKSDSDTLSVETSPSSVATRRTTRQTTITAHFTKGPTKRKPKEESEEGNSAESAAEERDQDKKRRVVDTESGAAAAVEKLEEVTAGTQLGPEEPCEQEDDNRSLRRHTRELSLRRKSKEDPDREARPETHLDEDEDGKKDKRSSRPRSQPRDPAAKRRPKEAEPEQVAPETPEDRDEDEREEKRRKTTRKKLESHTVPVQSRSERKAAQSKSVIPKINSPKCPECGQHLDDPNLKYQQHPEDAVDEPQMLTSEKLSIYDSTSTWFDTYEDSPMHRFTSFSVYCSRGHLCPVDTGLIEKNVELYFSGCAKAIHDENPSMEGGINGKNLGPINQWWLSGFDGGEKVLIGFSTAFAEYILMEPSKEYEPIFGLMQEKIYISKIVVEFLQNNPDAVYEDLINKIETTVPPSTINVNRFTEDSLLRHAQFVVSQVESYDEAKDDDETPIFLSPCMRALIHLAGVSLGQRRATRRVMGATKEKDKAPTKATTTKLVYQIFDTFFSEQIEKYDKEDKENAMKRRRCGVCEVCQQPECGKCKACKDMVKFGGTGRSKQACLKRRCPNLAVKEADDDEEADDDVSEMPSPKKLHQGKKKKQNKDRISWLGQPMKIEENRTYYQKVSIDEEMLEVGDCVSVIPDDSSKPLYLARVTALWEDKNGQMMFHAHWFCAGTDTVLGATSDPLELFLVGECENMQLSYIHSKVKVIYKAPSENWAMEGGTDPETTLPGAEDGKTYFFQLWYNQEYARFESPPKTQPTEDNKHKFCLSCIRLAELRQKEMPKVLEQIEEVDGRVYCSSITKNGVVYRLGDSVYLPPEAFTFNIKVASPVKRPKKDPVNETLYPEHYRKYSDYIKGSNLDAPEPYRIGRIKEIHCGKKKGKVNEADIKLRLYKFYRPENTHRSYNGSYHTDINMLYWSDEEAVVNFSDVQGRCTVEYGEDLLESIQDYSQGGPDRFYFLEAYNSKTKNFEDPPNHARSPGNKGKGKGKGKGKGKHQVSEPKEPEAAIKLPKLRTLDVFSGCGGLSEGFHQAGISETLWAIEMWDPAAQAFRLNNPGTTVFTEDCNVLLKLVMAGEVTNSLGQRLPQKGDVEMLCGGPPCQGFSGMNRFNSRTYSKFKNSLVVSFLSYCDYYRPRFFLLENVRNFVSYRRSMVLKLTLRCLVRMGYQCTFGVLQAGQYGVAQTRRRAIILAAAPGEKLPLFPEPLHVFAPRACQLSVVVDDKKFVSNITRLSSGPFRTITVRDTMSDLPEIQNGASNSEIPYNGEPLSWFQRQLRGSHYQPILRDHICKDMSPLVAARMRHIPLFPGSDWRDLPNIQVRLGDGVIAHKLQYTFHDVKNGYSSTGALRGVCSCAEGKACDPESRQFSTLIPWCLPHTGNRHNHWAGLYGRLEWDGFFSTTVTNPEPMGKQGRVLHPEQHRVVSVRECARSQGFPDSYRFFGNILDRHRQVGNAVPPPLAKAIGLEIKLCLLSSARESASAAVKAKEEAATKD
UniProt P12004: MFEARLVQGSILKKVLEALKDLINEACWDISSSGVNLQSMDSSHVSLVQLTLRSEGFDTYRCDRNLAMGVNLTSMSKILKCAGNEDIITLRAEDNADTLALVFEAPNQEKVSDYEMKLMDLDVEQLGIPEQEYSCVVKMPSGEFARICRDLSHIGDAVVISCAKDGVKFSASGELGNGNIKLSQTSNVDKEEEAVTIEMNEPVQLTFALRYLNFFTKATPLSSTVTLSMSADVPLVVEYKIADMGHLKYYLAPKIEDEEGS

In the test the target is GFP-Dnmt1 (UniProt P13864). The test is described as follows: co-IP + ELISA; GFP fusion precipitated from HEK293T extract on the GFP-multiTrap plate; bound fractions cross-linked with 2% formaldehyde and/or permeabilized with MeOH; endogenous PCNA or histone H3 detected by antibody, absorbance at 450 nm.

“endogenous PCNA (from UniProt P12004 1-261)”: the binding result was “binds”.
